Measurements taken from US4069035A, “1-(2-Carboxyaryl)-3-aryl-1,2,4-triazoles and use as herbicides” (E. I. Du Pont de Nemours and Company, priority 1976, dated 1978).

Test: dyeing of fiber swatch with picrate salt, visual evaluation
Design: key: ++: strongly dyed; +: moderately dyed; -: very weakly or not dyed at all
Settings: 90° for 10 min

Compound | dyeing, Acetate
Cc1ccc(-c2ncn(-c3ccccc3C(=O)O)n2)cc1 | +
COc1ccc(-c2ncn(-c3ccccc3C(=O)O)n2)cc1 | +
O=C(O)c1ccccc1-n1cnc(-c2ccc(Cl)cc2)n1 [1,2,4-Triazole Picrates, Ar = 4-ClC6 H4] | +
O=C(O)c1ccccc1-n1cnc(-c2ccccc2)n1 [1,2,4-Triazole Picrates, Ar = C6 H5] | +
Cc1ccc(-c2cn(-c3ccccc3C(=O)O)cn2)cc1 [Imidazole Picrates, Ar = 4-CH3 C6 H4] | +
COc1ccc(-c2cn(-c3ccccc3C(=O)O)cn2)cc1 [Imidazole Picrates, Ar = 4-CH3 OC6 H4] | +
O=C(O)c1ccccc1-n1cnc(-c2ccccc2)c1 [Imidazole Picrates, Ar = C6 H5] | +

Test: as above
Design: key: ++: strongly dyed; +: moderately dyed; -: very weakly or not dyed at all
Settings: 90° for 10 min
Remark: another data set of the same source

Compound | dyeing, Acrilan 1656
Cc1ccc(-c2ncn(-c3ccccc3C(=O)O)n2)cc1 | +
COc1ccc(-c2ncn(-c3ccccc3C(=O)O)n2)cc1 | +
O=C(O)c1ccccc1-n1cnc(-c2ccc(Cl)cc2)n1 [1,2,4-Triazole Picrates, Ar = 4-ClC6 H4] | +
O=C(O)c1ccccc1-n1cnc(-c2ccccc2)n1 [1,2,4-Triazole Picrates, Ar = C6 H5] | +
Cc1ccc(-c2cn(-c3ccccc3C(=O)O)cn2)cc1 [Imidazole Picrates, Ar = 4-CH3 C6 H4] | +
COc1ccc(-c2cn(-c3ccccc3C(=O)O)cn2)cc1 [Imidazole Picrates, Ar = 4-CH3 OC6 H4] | +
O=C(O)c1ccccc1-n1cnc(-c2ccccc2)c1 [Imidazole Picrates, Ar = C6 H5] | +

Test: as above
Design: key: ++: strongly dyed; +: moderately dyed; -: very weakly or not dyed at all
Settings: 90° for 10 min
Remark: another data set of the same source

Compound | dyeing, Arnel
Cc1ccc(-c2ncn(-c3ccccc3C(=O)O)n2)cc1 | -
COc1ccc(-c2ncn(-c3ccccc3C(=O)O)n2)cc1 | -
O=C(O)c1ccccc1-n1cnc(-c2ccc(Cl)cc2)n1 [1,2,4-Triazole Picrates, Ar = 4-ClC6 H4] | -
O=C(O)c1ccccc1-n1cnc(-c2ccccc2)n1 [1,2,4-Triazole Picrates, Ar = C6 H5] | -
Cc1ccc(-c2cn(-c3ccccc3C(=O)O)cn2)cc1 [Imidazole Picrates, Ar = 4-CH3 C6 H4] | -
COc1ccc(-c2cn(-c3ccccc3C(=O)O)cn2)cc1 [Imidazole Picrates, Ar = 4-CH3 OC6 H4] | -
O=C(O)c1ccccc1-n1cnc(-c2ccccc2)c1 [Imidazole Picrates, Ar = C6 H5] | -

Test: as above
Design: key: ++: strongly dyed; +: moderately dyed; -: very weakly or not dyed at all
Settings: 90° for 10 min
Remark: another data set of the same source

Compound | dyeing, Cotton
Cc1ccc(-c2ncn(-c3ccccc3C(=O)O)n2)cc1 | -
COc1ccc(-c2ncn(-c3ccccc3C(=O)O)n2)cc1 | -
O=C(O)c1ccccc1-n1cnc(-c2ccc(Cl)cc2)n1 [1,2,4-Triazole Picrates, Ar = 4-ClC6 H4] | -
O=C(O)c1ccccc1-n1cnc(-c2ccccc2)n1 [1,2,4-Triazole Picrates, Ar = C6 H5] | -
Cc1ccc(-c2cn(-c3ccccc3C(=O)O)cn2)cc1 [Imidazole Picrates, Ar = 4-CH3 C6 H4] | -
COc1ccc(-c2cn(-c3ccccc3C(=O)O)cn2)cc1 [Imidazole Picrates, Ar = 4-CH3 OC6 H4] | -
O=C(O)c1ccccc1-n1cnc(-c2ccccc2)c1 [Imidazole Picrates, Ar = C6 H5] | -

Test: as above
Design: key: ++: strongly dyed; +: moderately dyed; -: very weakly or not dyed at all
Settings: 90° for 10 min
Remark: another data set of the same source

Compound | dyeing, Creslan 61
Cc1ccc(-c2ncn(-c3ccccc3C(=O)O)n2)cc1 | -
COc1ccc(-c2ncn(-c3ccccc3C(=O)O)n2)cc1 | -
O=C(O)c1ccccc1-n1cnc(-c2ccc(Cl)cc2)n1 [1,2,4-Triazole Picrates, Ar = 4-ClC6 H4] | -
O=C(O)c1ccccc1-n1cnc(-c2ccccc2)n1 [1,2,4-Triazole Picrates, Ar = C6 H5] | -
Cc1ccc(-c2cn(-c3ccccc3C(=O)O)cn2)cc1 [Imidazole Picrates, Ar = 4-CH3 C6 H4] | -
COc1ccc(-c2cn(-c3ccccc3C(=O)O)cn2)cc1 [Imidazole Picrates, Ar = 4-CH3 OC6 H4] | -
O=C(O)c1ccccc1-n1cnc(-c2ccccc2)c1 [Imidazole Picrates, Ar = C6 H5] | -

Test: as above
Design: key: ++: strongly dyed; +: moderately dyed; -: very weakly or not dyed at all
Settings: 90° for 10 min
Remark: another data set of the same source

Compound | dyeing, Dacron 54
Cc1ccc(-c2ncn(-c3ccccc3C(=O)O)n2)cc1 | -
COc1ccc(-c2ncn(-c3ccccc3C(=O)O)n2)cc1 | -
O=C(O)c1ccccc1-n1cnc(-c2ccc(Cl)cc2)n1 [1,2,4-Triazole Picrates, Ar = 4-ClC6 H4] | -
O=C(O)c1ccccc1-n1cnc(-c2ccccc2)n1 [1,2,4-Triazole Picrates, Ar = C6 H5] | -
Cc1ccc(-c2cn(-c3ccccc3C(=O)O)cn2)cc1 [Imidazole Picrates, Ar = 4-CH3 C6 H4] | -
COc1ccc(-c2cn(-c3ccccc3C(=O)O)cn2)cc1 [Imidazole Picrates, Ar = 4-CH3 OC6 H4] | -
O=C(O)c1ccccc1-n1cnc(-c2ccccc2)c1 [Imidazole Picrates, Ar = C6 H5] | -

Test: as above
Design: key: ++: strongly dyed; +: moderately dyed; -: very weakly or not dyed at all
Settings: 90° for 10 min
Remark: another data set of the same source

Compound | dyeing, Dacron 64
Cc1ccc(-c2ncn(-c3ccccc3C(=O)O)n2)cc1 | -
COc1ccc(-c2ncn(-c3ccccc3C(=O)O)n2)cc1 | -
O=C(O)c1ccccc1-n1cnc(-c2ccc(Cl)cc2)n1 [1,2,4-Triazole Picrates, Ar = 4-ClC6 H4] | -
O=C(O)c1ccccc1-n1cnc(-c2ccccc2)n1 [1,2,4-Triazole Picrates, Ar = C6 H5] | -
Cc1ccc(-c2cn(-c3ccccc3C(=O)O)cn2)cc1 [Imidazole Picrates, Ar = 4-CH3 C6 H4] | -
COc1ccc(-c2cn(-c3ccccc3C(=O)O)cn2)cc1 [Imidazole Picrates, Ar = 4-CH3 OC6 H4] | -
O=C(O)c1ccccc1-n1cnc(-c2ccccc2)c1 [Imidazole Picrates, Ar = C6 H5] | -

Test: as above
Design: key: ++: strongly dyed; +: moderately dyed; -: very weakly or not dyed at all
Settings: 90° for 10 min
Remark: another data set of the same source

Compound | dyeing, Nylon
Cc1ccc(-c2ncn(-c3ccccc3C(=O)O)n2)cc1 | ++
COc1ccc(-c2ncn(-c3ccccc3C(=O)O)n2)cc1 | ++
O=C(O)c1ccccc1-n1cnc(-c2ccc(Cl)cc2)n1 [1,2,4-Triazole Picrates, Ar = 4-ClC6 H4] | ++
O=C(O)c1ccccc1-n1cnc(-c2ccccc2)n1 [1,2,4-Triazole Picrates, Ar = C6 H5] | ++
Cc1ccc(-c2cn(-c3ccccc3C(=O)O)cn2)cc1 [Imidazole Picrates, Ar = 4-CH3 C6 H4] | ++
COc1ccc(-c2cn(-c3ccccc3C(=O)O)cn2)cc1 [Imidazole Picrates, Ar = 4-CH3 OC6 H4] | ++
O=C(O)c1ccccc1-n1cnc(-c2ccccc2)c1 [Imidazole Picrates, Ar = C6 H5] | ++

Test: as above
Design: key: ++: strongly dyed; +: moderately dyed; -: very weakly or not dyed at all
Settings: 90° for 10 min
Remark: another data set of the same source

Compound | dyeing, Orlon
Cc1ccc(-c2ncn(-c3ccccc3C(=O)O)n2)cc1 | -
COc1ccc(-c2ncn(-c3ccccc3C(=O)O)n2)cc1 | -
O=C(O)c1ccccc1-n1cnc(-c2ccc(Cl)cc2)n1 [1,2,4-Triazole Picrates, Ar = 4-ClC6 H4] | -
O=C(O)c1ccccc1-n1cnc(-c2ccccc2)n1 [1,2,4-Triazole Picrates, Ar = C6 H5] | -
Cc1ccc(-c2cn(-c3ccccc3C(=O)O)cn2)cc1 [Imidazole Picrates, Ar = 4-CH3 C6 H4] | -
COc1ccc(-c2cn(-c3ccccc3C(=O)O)cn2)cc1 [Imidazole Picrates, Ar = 4-CH3 OC6 H4] | -
O=C(O)c1ccccc1-n1cnc(-c2ccccc2)c1 [Imidazole Picrates, Ar = C6 H5] | -

Test: as above
Design: key: ++: strongly dyed; +: moderately dyed; -: very weakly or not dyed at all
Settings: 90° for 10 min
Remark: another data set of the same source

Compound | dyeing, Silk
Cc1ccc(-c2ncn(-c3ccccc3C(=O)O)n2)cc1 | ++
COc1ccc(-c2ncn(-c3ccccc3C(=O)O)n2)cc1 | ++
O=C(O)c1ccccc1-n1cnc(-c2ccc(Cl)cc2)n1 [1,2,4-Triazole Picrates, Ar = 4-ClC6 H4] | ++
O=C(O)c1ccccc1-n1cnc(-c2ccccc2)n1 [1,2,4-Triazole Picrates, Ar = C6 H5] | ++
Cc1ccc(-c2cn(-c3ccccc3C(=O)O)cn2)cc1 [Imidazole Picrates, Ar = 4-CH3 C6 H4] | ++
COc1ccc(-c2cn(-c3ccccc3C(=O)O)cn2)cc1 [Imidazole Picrates, Ar = 4-CH3 OC6 H4] | ++
O=C(O)c1ccccc1-n1cnc(-c2ccccc2)c1 [Imidazole Picrates, Ar = C6 H5] | ++

Test: as above
Design: key: ++: strongly dyed; +: moderately dyed; -: very weakly or not dyed at all
Settings: 90° for 10 min
Remark: another data set of the same source

Compound | dyeing, Verel 75
Cc1ccc(-c2ncn(-c3ccccc3C(=O)O)n2)cc1 | +
COc1ccc(-c2ncn(-c3ccccc3C(=O)O)n2)cc1 | -
O=C(O)c1ccccc1-n1cnc(-c2ccc(Cl)cc2)n1 [1,2,4-Triazole Picrates, Ar = 4-ClC6 H4] | -
O=C(O)c1ccccc1-n1cnc(-c2ccccc2)n1 [1,2,4-Triazole Picrates, Ar = C6 H5] | +
Cc1ccc(-c2cn(-c3ccccc3C(=O)O)cn2)cc1 [Imidazole Picrates, Ar = 4-CH3 C6 H4] | -
COc1ccc(-c2cn(-c3ccccc3C(=O)O)cn2)cc1 [Imidazole Picrates, Ar = 4-CH3 OC6 H4] | -
O=C(O)c1ccccc1-n1cnc(-c2ccccc2)c1 [Imidazole Picrates, Ar = C6 H5] | -

Test: as above
Design: key: ++: strongly dyed; +: moderately dyed; -: very weakly or not dyed at all
Settings: 90° for 10 min
Remark: another data set of the same source

Compound | dyeing, Viscose
Cc1ccc(-c2ncn(-c3ccccc3C(=O)O)n2)cc1 | -
COc1ccc(-c2ncn(-c3ccccc3C(=O)O)n2)cc1 | -
O=C(O)c1ccccc1-n1cnc(-c2ccc(Cl)cc2)n1 [1,2,4-Triazole Picrates, Ar = 4-ClC6 H4] | -
O=C(O)c1ccccc1-n1cnc(-c2ccccc2)n1 [1,2,4-Triazole Picrates, Ar = C6 H5] | +
Cc1ccc(-c2cn(-c3ccccc3C(=O)O)cn2)cc1 [Imidazole Picrates, Ar = 4-CH3 C6 H4] | -
COc1ccc(-c2cn(-c3ccccc3C(=O)O)cn2)cc1 [Imidazole Picrates, Ar = 4-CH3 OC6 H4] | -
O=C(O)c1ccccc1-n1cnc(-c2ccccc2)c1 [Imidazole Picrates, Ar = C6 H5] | -

Test: as above
Design: key: ++: strongly dyed; +: moderately dyed; -: very weakly or not dyed at all
Settings: 90° for 10 min
Remark: another data set of the same source

Compound | dyeing, Wool
Cc1ccc(-c2ncn(-c3ccccc3C(=O)O)n2)cc1 | ++
COc1ccc(-c2ncn(-c3ccccc3C(=O)O)n2)cc1 | ++
O=C(O)c1ccccc1-n1cnc(-c2ccc(Cl)cc2)n1 [1,2,4-Triazole Picrates, Ar = 4-ClC6 H4] | ++
O=C(O)c1ccccc1-n1cnc(-c2ccccc2)n1 [1,2,4-Triazole Picrates, Ar = C6 H5] | ++
Cc1ccc(-c2cn(-c3ccccc3C(=O)O)cn2)cc1 [Imidazole Picrates, Ar = 4-CH3 C6 H4] | ++
COc1ccc(-c2cn(-c3ccccc3C(=O)O)cn2)cc1 [Imidazole Picrates, Ar = 4-CH3 OC6 H4] | ++
O=C(O)c1ccccc1-n1cnc(-c2ccccc2)c1 [Imidazole Picrates, Ar = C6 H5] | ++
